Measurements published in publication PMC9492542, “Brain-restricted mTOR inhibition with binary pharmacology” (Nature, 2022).
Where “and” joins values, the source holds several entries; their conditions need not be identical. Identical values can stand only once. This continues a long series; more values of the same kind are listed elsewhere.

System: K562 CRISPRi cells
Assay: Cell viability assay (CellTiter-Glo, 72 h) in K562 CRISPRi cells with sgRNA knockdown of FKBP12

## CO[C@H]1C[C@@H]2CC[C@@H](C)[C@@](O)(O2)C(=O)C(=O)N2CCCC[C@H]2C(=O)O[C@H]([C@H](C)C[C@@H]2CC[C@@H](OCCOCc3cn(CCOCCOCCOCCOCCOCCOCCOCCOCCC(=O)NCCCCn4nc(-c5ccc6oc(N)nc6c5)c5c(N)ncnc54)nn3)[C@H](OC)C2)CC(=O)[C@H](C)/C=C(\C)[C@@H](O)[C@@H](OC)C(=O)[C@H](C)C[C@H](C)/C=C/C=C/C=C/1C [RapaLink-1]
FKBP12 sgRNA-1, 0.137174 nM
  cell growth (K562-dCas9-KRAB): 99.8702 and 102.584 and 89.7276
FKBP12 sgRNA-1, 0.411523 nM
  cell growth (K562-dCas9-KRAB): 100.065 and 102.132 and 87.7639
FKBP12 sgRNA-2, 0.411523 nM
  cell growth (K562-dCas9-KRAB): 99.1685 and 99.5332 and 97.8158
GAL4-4 sgRNA, 0.137174 nM
  cell growth (K562-dCas9-KRAB): 99.0845 and 97.6857
GAL4-4 sgRNA, 0.411523 nM
  cell growth (K562-dCas9-KRAB): 99.3099 and 96.9455 and 97.4187
No sgRNA + 10 μM FK506, 0.411523 nM
  cell growth (K562-dCas9-KRAB): 91.6598 and 92.3631 and 90.5953
No sgRNA, 0.411523 nM
  cell growth (K562-dCas9-KRAB): 98.7043 and 98.0688 and 98.468
